The target of the assay is T1, human B7-H4 (protein in solution, BLI) (human, UniProt Q7Z7D3 25-258, limits assumed).
T1 sequence (looked up): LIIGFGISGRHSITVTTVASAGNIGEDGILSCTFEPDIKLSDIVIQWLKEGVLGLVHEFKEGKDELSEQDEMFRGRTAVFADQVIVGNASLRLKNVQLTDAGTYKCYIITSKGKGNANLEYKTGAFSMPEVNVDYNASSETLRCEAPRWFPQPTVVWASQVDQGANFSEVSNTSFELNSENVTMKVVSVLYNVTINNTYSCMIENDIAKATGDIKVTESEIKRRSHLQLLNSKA
Kind of assay: BLI.

We go through 2 molecules from patent publication US20250136694A1 (HARBOUR BIOMED SHANGHAI, published 2025).

These are yes or no findings as the source states them, for the method shown. Some entries that bind do so weakly or less than the wild type.

B1: PR006008 (antibody, IgG1, V domains shown)
VH: EVQLVESGGGLVQPGGSLRLSCAASGFTFTDFWMHWVRQVPGKGREWVSRISPDGSSTSYEDSVKGRFTISRDNAKNTVYLQMHGLRAEDTAVYYCTRFSTGWHRIEYFQHWGQGTLVTVSS
notes: also called R7004M6D4; anti-human B7-H4 HCAb monoclonal antibody
Turning to B1, the binding entry is listed as “binds”.

B2: PR006004 (antibody, V domains shown)
VH: EVQLVESGGGLVQPGGSLRLSCAASGFAFSNYWMHWARQVPGKGRVWISRISGDGRSTSYADSVKGRFTISRDNAKNMVYLQMNNLRAEDTAVYYCARDRFGDDYYYGMNVWGQGTTVTVSS
notes: also called R7004M1A2; anti-human B7-H4 HCAb monoclonal antibody
As to B2, the binding entry is listed as “binds”.
